Assay [1] has as its target full-length EGFR, COOH-terminal HA-6His-tagged (human) (UniProt P00533). As to the kind of experiment: co-IP; co-transfected HEK293T cells (Fig. 1A also A549), serum free condition; lysates (Fig. 3D also culture media) immunoprecipitated with anti-HA tag agarose beads; Western blot for Flag-tagged KRT19 forms.
Assay [2] deals with full-length MET, COOH-terminal HA-6His-tagged (human) (UniProt P08581). The description is as above.

By UniProt entry, the sequences of proteins in these tests, tags left out. Residues count along the entry.
UniProt P08581, residues 25-1390: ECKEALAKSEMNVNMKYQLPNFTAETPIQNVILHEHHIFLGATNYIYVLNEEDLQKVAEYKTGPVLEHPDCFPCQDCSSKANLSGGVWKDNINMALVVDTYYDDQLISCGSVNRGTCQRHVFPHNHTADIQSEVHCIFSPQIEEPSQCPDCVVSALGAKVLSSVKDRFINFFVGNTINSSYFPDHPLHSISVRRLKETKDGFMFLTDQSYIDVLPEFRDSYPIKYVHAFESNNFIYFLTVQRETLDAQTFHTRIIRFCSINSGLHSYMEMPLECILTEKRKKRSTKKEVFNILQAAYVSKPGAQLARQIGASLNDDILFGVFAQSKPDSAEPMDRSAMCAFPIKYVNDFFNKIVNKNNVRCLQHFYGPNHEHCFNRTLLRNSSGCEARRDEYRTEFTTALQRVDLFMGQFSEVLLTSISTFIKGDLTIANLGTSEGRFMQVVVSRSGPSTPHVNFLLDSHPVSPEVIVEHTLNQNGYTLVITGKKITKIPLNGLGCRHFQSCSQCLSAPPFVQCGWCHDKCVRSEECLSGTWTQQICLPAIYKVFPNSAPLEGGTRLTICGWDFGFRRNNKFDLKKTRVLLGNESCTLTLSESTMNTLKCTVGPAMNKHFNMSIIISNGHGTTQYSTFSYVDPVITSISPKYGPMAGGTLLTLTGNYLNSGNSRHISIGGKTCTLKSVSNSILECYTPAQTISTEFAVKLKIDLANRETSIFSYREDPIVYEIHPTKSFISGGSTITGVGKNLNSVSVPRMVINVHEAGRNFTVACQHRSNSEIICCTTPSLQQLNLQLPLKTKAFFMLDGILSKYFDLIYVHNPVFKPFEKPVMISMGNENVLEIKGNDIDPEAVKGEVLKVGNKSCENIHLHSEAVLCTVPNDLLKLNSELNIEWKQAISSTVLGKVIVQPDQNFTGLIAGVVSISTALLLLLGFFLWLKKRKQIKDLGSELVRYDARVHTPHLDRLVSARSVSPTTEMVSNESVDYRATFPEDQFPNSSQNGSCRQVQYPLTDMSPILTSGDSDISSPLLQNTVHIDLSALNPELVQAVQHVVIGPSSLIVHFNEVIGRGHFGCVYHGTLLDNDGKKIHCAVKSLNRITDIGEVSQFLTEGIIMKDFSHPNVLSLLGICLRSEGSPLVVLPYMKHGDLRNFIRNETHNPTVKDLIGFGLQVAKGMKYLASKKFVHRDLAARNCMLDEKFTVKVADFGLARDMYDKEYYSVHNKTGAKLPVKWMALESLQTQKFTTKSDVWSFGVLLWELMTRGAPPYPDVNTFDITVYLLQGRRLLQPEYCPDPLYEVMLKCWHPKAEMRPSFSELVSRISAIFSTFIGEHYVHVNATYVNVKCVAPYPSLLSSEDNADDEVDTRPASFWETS
UniProt P08727: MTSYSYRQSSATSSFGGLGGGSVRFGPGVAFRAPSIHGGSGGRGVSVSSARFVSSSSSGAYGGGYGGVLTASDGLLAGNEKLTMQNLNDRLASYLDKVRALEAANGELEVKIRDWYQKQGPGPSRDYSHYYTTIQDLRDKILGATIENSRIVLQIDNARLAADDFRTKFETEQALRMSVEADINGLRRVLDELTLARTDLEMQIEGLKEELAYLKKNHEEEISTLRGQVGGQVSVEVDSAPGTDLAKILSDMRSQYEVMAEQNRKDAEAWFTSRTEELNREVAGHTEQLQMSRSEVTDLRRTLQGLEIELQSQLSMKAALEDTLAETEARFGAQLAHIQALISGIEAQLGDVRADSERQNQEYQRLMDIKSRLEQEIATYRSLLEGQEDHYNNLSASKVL

Results are given in words; binding and its absence hold for the method and conditions named. Binding seen in cells or lysates may run through a third protein.

As to “full-length KRT19, COOH-terminal Flag-6His-tagged (from UniProt P08727 1-400)”, the binding entry in assay [1] and in assay [2] was “no binding” throughout.

The values above are taken from article PMC5180104, “Interaction of cytokeratin 19 head domain and HER2 in the cytoplasm leads to activation of HER2-Erk pathway” (Scientific Reports, 2016).
